Reference: paper PMC5552723
Results are given in words; binding and its absence hold for the method and conditions named. Binding calls can cover weak binding; strength is not graded here.

Biological target: GAL4 DNA-BD-SmAREB1 fusion (Salvia miltiorrhiza)
Experiment: two-hybrid; S. cerevisiae AH109 co-transformed with pGADT7 (AD) and pGBKT7 (BD) fusions; serial dilutions spotted on SD/-Trp-Leu and SD/-Leu-Trp-His-Ade, 30°C, 3-5 days; X-β-Gal staining

In the case of “SmSnRK2.3-pGADT7 (from UniProt A0A2U9Q8L8) (enzyme)”, the binding is reported as “binds”.
With “SmSnRK2.6-pGADT7 (from UniProt A0A2U9Q8M1) (enzyme)” the binding was “binds”.
